# In PMC9014085:
# Sequences of proteins named here, by UniProt entry; tags and fusion partners are left off.
# UniProt A0R0B4: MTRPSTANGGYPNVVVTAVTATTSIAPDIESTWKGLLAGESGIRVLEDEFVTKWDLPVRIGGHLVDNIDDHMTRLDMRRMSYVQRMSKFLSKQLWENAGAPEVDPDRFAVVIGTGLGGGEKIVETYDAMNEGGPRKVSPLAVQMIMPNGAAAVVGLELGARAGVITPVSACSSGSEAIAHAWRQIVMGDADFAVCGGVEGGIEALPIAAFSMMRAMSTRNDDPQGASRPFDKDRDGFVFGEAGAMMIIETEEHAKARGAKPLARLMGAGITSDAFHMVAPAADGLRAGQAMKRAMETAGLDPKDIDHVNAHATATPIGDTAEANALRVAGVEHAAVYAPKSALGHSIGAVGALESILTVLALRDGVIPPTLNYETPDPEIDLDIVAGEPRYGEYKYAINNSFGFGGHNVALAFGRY
# UniProt A0R617: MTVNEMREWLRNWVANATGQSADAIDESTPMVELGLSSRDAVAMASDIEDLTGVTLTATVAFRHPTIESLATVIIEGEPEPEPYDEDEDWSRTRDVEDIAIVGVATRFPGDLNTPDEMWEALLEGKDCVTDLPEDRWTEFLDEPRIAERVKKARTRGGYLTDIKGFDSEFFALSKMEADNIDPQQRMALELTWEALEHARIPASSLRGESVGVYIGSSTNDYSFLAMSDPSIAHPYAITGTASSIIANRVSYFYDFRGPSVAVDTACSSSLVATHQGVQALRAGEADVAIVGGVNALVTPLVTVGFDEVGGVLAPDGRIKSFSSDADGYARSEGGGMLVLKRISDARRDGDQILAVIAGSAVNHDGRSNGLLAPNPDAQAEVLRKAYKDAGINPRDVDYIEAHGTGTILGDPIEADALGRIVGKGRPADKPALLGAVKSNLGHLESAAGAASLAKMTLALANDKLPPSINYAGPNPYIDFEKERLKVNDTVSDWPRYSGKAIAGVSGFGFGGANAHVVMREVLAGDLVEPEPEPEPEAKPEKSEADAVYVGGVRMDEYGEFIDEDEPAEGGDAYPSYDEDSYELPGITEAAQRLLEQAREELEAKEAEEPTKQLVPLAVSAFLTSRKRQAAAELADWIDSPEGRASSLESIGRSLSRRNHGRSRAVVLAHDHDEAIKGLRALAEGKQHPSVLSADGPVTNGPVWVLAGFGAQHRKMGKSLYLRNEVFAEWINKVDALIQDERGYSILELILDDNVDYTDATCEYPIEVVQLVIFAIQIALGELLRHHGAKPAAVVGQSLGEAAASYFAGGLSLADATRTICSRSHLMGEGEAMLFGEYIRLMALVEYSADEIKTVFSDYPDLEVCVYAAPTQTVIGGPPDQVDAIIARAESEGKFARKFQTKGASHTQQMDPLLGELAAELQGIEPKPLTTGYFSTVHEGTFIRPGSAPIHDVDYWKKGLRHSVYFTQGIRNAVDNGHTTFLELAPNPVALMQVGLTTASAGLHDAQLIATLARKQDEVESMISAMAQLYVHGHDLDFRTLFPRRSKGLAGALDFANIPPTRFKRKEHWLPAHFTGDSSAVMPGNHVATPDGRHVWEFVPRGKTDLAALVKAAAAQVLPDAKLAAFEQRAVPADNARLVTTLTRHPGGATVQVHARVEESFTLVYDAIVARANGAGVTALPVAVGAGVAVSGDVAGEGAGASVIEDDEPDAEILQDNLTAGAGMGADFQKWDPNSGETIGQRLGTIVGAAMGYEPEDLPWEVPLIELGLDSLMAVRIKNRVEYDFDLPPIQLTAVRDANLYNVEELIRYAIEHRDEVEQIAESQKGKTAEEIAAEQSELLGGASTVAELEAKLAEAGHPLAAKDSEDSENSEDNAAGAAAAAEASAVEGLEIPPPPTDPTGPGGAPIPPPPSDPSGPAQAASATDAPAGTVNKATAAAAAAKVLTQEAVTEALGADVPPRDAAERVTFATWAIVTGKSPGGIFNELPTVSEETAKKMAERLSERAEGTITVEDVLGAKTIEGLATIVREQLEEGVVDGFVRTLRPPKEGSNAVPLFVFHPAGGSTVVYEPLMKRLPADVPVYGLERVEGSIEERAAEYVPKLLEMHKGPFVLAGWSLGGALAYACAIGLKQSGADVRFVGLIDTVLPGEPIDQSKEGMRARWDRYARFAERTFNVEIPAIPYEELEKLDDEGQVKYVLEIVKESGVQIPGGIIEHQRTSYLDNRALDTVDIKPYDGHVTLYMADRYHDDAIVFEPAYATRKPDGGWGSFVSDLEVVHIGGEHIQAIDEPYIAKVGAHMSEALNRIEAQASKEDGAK
# These are yes or no findings as the source states them, for the method shown. Binding seen in cells or lysates may run through a third protein. Some binding calls cover weakened binding; strength is not graded here. For some assays here: Tags and fused reporters may be left off the sequences shown.
# T1: Flag-Rv2801a (UniProt P0CL61)
# T1 sequence: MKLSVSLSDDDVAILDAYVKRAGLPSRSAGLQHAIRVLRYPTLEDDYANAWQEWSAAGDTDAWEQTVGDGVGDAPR
# Columns and labels:
# [1] = biological target: MSMEG_5634-His6 (M. smegmatis) (UniProt A0R3Y0); assay: pull-down
# [2] = biological target: His6-tagged KasA (UniProt A0R0B4); assay: pull-down; […]; 50 mM Tris, 150 mM NaCl, pH 7.0; […]
# [3] = biological target: His6-tagged MSMEG_5635 (M. smegmatis) (UniProt A0R3Y1); assay: as above
# [4] = biological target: His6-tagged Pks13 (UniProt A0R617); assay: as above
# [5] = biological target: T1, Flag-Rv2801a; assay: as above
molecule,measurement,setting,value
AcpM (S41A)-Flag (from UniProt A0R0B3 1-99),binding,[1],no binding
Flag-tagged MSMEG_5634 (W30A) (from UniProt A0R3Y0 1-147),binding,[2],binds
Flag-tagged MSMEG_5634 (from UniProt A0R3Y0 1-147),binding,[3],no binding
same,binding,[4],binds
"Rv2801c with a C-terminal His6 tag (protein, UniProt P71650 1-118) MMRRGEIWQVDLDPARGSEANNQRPAVVVSNDRANATATRLGRGVITVVPVTSNIAKVYPFQVLLSATTTGLQVDCKAQAEQIRSIATERLLRPIGRVSAAELAQLDEALKLHLDLWS",binding,[5],binds
